Measured values reported in the supplement of paper PMC12823440, “Inhibitors supercharge kinase turnover through native proteolytic circuits” (Nature, 2025).
This is one part of the list. Hit calls seldom repeat between salt and free forms of one compound.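 In K562 cells expressing nanoluciferase-fused kinases, luminescence was recorded at 4 h intervals between 2 and 18 h, normalized as percent of control with DMSO at 100% and a positive control at 0%. A significant (2 sigma) signal drop marks a time point as decreased. The authors' rule for a hit is not shown and takes in more than the number of time points.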

Protein sequences, listed by entry. Tags and fused reporters are not part of them. Lines headed by an entry give the natural chain unless they say otherwise; changes in a name come on top.
UniProt Q9UM73: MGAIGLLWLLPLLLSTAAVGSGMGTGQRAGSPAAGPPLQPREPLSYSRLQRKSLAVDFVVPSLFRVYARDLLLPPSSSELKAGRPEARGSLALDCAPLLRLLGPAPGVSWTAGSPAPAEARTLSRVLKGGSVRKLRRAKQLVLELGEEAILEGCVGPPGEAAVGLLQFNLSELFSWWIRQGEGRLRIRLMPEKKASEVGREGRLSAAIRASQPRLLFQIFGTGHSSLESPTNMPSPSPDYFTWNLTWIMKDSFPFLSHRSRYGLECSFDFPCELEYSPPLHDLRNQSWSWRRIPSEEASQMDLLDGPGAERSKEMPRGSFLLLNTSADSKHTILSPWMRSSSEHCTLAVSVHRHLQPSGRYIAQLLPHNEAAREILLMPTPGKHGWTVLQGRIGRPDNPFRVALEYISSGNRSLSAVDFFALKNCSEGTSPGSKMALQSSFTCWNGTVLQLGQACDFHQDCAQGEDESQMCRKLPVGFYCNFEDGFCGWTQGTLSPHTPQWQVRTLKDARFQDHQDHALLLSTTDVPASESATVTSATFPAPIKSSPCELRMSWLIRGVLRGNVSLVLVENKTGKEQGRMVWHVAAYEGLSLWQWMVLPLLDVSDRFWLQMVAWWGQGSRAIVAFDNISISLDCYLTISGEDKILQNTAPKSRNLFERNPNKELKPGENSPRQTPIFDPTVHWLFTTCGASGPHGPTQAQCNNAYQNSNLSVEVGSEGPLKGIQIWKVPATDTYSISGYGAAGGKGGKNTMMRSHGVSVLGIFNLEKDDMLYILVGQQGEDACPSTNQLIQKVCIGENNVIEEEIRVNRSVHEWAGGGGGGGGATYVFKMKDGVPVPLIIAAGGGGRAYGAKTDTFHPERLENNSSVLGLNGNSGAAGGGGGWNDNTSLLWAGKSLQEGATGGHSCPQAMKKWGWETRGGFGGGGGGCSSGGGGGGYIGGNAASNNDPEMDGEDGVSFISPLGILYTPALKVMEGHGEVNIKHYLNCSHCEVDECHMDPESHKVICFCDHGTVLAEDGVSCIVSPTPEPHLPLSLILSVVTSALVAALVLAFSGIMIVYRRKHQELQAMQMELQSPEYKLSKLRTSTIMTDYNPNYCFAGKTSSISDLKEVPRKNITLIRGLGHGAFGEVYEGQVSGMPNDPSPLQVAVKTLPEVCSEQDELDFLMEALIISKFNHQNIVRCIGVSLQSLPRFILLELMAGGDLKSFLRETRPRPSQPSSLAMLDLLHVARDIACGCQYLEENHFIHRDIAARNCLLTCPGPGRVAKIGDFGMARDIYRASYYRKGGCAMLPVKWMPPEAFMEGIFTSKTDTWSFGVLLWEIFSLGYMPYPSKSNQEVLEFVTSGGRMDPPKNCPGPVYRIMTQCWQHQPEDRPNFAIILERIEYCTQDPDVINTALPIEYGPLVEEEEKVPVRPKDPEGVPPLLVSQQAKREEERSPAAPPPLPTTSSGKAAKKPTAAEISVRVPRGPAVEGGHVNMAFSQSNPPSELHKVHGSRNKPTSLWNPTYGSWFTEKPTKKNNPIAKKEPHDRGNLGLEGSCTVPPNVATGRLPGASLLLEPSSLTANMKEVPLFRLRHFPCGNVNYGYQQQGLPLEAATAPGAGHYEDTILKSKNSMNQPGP
UniProt P10398: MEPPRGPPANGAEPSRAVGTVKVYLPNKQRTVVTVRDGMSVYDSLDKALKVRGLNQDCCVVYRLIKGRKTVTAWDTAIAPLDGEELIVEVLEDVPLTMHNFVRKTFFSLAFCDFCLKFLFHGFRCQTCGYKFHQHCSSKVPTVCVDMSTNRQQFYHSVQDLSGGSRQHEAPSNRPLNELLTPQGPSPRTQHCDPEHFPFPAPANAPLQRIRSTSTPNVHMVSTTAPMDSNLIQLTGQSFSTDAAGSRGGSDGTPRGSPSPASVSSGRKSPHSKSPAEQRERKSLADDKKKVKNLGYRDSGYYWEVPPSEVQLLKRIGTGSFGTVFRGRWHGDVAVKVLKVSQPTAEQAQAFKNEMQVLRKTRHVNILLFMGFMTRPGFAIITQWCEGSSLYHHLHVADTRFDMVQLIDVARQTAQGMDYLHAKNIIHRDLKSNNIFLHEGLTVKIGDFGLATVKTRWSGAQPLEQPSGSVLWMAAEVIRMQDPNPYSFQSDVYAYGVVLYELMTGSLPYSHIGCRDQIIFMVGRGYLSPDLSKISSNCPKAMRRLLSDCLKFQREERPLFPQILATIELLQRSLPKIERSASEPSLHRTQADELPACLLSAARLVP
UniProt O14965: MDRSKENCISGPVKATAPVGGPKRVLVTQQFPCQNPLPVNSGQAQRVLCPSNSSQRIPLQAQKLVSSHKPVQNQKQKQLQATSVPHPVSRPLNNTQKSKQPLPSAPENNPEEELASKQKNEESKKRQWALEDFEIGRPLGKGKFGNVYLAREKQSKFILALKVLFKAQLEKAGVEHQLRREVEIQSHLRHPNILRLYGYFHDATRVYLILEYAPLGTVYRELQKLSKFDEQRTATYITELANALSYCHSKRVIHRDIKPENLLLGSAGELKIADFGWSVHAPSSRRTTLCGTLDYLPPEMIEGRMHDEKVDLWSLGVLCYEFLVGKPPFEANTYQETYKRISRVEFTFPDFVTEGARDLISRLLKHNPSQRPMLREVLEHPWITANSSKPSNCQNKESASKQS
UniProt Q96GD4, whole entry: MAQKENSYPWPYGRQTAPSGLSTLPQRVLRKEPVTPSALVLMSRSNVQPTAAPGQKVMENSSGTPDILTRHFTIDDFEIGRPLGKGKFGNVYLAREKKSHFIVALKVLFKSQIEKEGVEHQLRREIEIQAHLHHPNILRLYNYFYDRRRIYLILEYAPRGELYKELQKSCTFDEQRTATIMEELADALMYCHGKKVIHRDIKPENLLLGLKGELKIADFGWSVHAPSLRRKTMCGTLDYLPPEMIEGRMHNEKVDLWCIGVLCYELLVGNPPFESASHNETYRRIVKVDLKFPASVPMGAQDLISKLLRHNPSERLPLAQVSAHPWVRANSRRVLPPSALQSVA
UniProt Q9UQB9: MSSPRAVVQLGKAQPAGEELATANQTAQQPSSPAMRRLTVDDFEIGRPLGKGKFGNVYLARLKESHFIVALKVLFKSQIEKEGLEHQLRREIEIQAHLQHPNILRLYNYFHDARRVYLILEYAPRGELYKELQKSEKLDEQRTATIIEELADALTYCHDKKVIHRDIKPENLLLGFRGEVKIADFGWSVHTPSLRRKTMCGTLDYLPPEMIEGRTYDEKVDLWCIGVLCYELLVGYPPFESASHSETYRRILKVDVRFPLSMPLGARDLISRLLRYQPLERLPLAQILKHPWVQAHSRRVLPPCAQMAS
UniProt P51451: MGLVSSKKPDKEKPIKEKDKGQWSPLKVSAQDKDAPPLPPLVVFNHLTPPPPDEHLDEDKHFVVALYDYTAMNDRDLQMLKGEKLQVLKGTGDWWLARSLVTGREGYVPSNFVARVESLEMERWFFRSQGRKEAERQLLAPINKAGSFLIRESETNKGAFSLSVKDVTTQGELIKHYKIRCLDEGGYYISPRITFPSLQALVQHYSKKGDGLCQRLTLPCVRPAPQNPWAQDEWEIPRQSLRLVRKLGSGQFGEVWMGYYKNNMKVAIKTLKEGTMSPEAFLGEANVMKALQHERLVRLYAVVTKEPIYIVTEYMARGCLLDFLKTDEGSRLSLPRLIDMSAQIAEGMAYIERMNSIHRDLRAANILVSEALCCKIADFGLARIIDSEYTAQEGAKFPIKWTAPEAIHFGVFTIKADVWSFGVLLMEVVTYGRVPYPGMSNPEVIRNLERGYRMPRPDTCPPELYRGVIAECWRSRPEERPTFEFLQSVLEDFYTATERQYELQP
UniProt P51813: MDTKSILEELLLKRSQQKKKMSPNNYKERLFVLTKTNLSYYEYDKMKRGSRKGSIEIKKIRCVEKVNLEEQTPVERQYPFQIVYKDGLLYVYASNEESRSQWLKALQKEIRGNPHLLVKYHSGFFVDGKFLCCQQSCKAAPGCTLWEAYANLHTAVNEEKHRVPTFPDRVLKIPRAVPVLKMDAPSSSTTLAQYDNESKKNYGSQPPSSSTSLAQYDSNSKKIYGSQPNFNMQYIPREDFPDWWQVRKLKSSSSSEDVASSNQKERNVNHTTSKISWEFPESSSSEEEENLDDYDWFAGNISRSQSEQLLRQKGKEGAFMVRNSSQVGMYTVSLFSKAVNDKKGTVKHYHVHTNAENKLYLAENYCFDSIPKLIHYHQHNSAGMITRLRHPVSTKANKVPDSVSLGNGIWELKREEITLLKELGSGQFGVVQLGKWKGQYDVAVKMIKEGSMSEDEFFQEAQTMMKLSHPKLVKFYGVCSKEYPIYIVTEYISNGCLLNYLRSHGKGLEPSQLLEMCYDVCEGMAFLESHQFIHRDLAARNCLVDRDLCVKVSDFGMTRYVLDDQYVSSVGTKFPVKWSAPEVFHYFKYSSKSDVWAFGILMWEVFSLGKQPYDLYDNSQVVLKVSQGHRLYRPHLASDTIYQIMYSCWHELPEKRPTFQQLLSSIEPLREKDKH
UniProt P15056, whole entry, looked up: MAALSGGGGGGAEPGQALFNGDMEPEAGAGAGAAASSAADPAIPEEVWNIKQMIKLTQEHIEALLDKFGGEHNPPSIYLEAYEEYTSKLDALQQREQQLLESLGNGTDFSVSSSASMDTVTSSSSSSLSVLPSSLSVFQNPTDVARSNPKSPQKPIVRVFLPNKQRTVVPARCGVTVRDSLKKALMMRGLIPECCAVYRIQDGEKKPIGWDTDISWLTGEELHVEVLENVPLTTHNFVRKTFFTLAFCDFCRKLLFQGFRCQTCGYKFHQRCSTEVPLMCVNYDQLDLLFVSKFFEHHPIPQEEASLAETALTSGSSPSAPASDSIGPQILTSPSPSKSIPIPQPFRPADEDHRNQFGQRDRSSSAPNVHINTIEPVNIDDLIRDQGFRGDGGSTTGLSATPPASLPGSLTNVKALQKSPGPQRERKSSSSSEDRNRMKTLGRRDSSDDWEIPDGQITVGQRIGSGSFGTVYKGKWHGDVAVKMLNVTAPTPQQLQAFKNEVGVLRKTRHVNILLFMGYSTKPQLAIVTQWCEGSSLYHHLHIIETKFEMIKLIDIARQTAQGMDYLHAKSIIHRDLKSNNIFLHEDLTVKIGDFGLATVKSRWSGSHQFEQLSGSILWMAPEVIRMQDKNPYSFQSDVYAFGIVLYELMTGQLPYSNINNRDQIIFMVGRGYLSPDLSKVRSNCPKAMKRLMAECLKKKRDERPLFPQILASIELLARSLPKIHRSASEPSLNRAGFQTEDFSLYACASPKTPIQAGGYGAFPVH
UniProt Q06187: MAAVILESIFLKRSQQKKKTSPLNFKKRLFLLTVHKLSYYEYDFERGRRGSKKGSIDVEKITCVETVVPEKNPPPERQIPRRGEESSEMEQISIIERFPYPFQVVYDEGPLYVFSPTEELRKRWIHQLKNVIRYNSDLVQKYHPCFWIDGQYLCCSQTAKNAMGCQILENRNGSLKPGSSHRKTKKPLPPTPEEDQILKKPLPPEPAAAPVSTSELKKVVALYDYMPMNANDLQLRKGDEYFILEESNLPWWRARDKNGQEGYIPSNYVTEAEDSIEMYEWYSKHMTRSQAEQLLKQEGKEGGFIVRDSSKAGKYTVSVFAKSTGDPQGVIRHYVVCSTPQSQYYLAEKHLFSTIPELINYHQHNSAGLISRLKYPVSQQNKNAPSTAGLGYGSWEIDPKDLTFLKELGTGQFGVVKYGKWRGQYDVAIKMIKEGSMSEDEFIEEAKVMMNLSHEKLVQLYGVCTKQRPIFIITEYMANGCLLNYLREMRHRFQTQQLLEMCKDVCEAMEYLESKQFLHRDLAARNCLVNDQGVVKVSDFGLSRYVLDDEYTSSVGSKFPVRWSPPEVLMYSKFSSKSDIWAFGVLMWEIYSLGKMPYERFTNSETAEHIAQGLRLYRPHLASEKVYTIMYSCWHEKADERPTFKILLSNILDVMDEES

Tests used:
Experiment in all cases: number of time points (of 5) at which kinase-Nluc abundance scored as decreased, DMSO-normalised (count); higher = more persistent destabilization
Conditions in all cases: K562; 2-18 h
[1] = target: ALK (UniProt Q9UM73)
[2] = target: ARAF (UniProt P10398)
[3] = target: AURKA (UniProt O14965)
[4] = target: AURKB (UniProt Q96GD4)
[5] = target: AURKC (UniProt Q9UQB9)
[6] = target: BLK (UniProt P51451)
[7] = target: BMX (UniProt P51813)
[8] = target: BRAF (UniProt P15056)
[9] = test system: BRAF_V600E
[10] = target: BTK (UniProt Q06187)

| SMILES | number of time points [1] | number of time points [2] | number of time points [3] | number of time points [4] | number of time points [5] | number of time points [6] | number of time points [7] | number of time points [8] | number of time points [9] | number of time points [10] |
| --- | --- | --- | --- | --- | --- | --- | --- | --- | --- | --- |
| CC[C@H](Nc1ncnc2[nH]cnc12)c1oc2ccccc2c(=O)c1-c1cccc(F)c1 [Tenalisib] (10 µM) | 0 | 0 | 0 | 0 | 0 | 0 | 0 | 0 | 0 | 0 |
| C[C@@H]1COCCN1c1cc(C2([S@](C)(=N)=O)CC2)nc(-c2cc[nH]c3nccc2-3)n1 [Ceralasertib] (2.5 µM) | 0 | 0 | 0 | 0 | 0 | 0 | 0 | 0 | 0 | 0 |
| COc1ccccc1/C=C1\C(=O)Nc2ccccc21 (10 µM) | 0 | 0 | 0 | 0 | 0 | 0 | 0 | 0 | 0 | 0 |
| Cc1ccc(-c2nn(C(C)(C)CNC(=O)c3ccncc3)c3ncnc(N)c23)cc1 (2.5 µM) | 0 | 0 | 0 | 0 | 0 | 0 | 0 | 0 | 0 | 0 |
| CC(C)(C)Cn1c(N)nc2ccc(-c3[nH]c(C(C)(C)C)nc3-c3ccc(F)cc3)nc21 [Ralimetinib dimesylate] (2.5 µM) | 0 | 0 | 0 | 0 | 0 | 0 | 0 | 0 | 0 | 0 |
| Cc1cccc(-c2[nH]ncc2-c2ccc3ncccc3n2)n1 (10 µM) | 0 | 0 | 0 | 0 | 0 | 0 | 0 | 0 | 0 | 0 |
| CC[C@H](C)[C@H](NC(=O)[C@H](CCC(=O)O)NC(=O)[C@H](CCCN=C(N)N)NC(=O)[C@H](CCCN=C(N)N)NC(=O)[C@@H](N)CCCCN)C(=O)N[C@@H](CC(C)C)C(=O)N[C@@H](CO)C(=O)N[C@@H](CCCN=C(N)N)C(=O)N[C@@H](CCCN=C(N)N)C(=O)N1CCC[C@H]1C(=O)N[C@@H](CO)C(=O)N[C@@H](Cc1ccc(O)cc1)C(=O)N[C@@H](CCCN=C(N)N)C(=O)O [CREBtide] (10 µM) | 0 | 0 | 0 | 0 | 0 | 0 | 0 | 0 | 0 | 0 |
| Cn1cc(-c2ccc(F)c(C(F)(F)F)c2)nc1C1CCN(c2ncnc3[nH]ncc23)CC1 (10 µM) | 0 | 0 | 0 | 0 | 0 | 0 | 0 | 0 | 0 | 0 |
| O=c1cc(-c2ccc(O)c(O)c2O)oc2ccccc12 (10 µM) | 0 | 0 | 0 | 0 | 0 | 0 | 0 | 0 | 0 | 0 |
| [O-][n+]1cccc(-c2nc3c(Cl)cccc3cc2[C@@H](Nc2ncnc3cccnc23)C(F)(F)F)c1 [Seletalisib] (10 µM) | 0 | 0 | 0 | 0 | 0 | 0 | 0 | 0 | 0 | 0 |
| O=C(Nc1cccc(-c2nncn2C2CC2)c1)c1cc(-n2cnc(C3CC3)c2)ccn1 (10 µM) | 0 | 0 | 0 | 0 | 0 | 0 | 0 | 0 | 0 | 0 |
| CC1=C(CC(=O)O)c2cc(F)ccc2/C1=C\c1ccc(C(C)C)cc1 (10 µM) | 0 | 0 | 0 | 0 | 0 | 0 | 0 | 0 | 0 | 0 |
| N#C/C(=C(/N)Sc1ccc(N)cc1)c1ccccc1C(F)(F)F (10 µM) | 0 | 0 | 0 | 0 | 0 | 0 | 0 | 0 | 0 | 0 |
| COc1nc(-c2ccnc(NC(=O)C3CC3)c2)sc1C(N)=O [GSK-3β inhibitor 2] (10 µM) | 0 | 0 | 0 | 0 | 0 | 0 | 3 | 0 | 0 | 0 |
| O=Nc1c(-c2c(O)[nH]c3ccccc23)[nH]c2ccccc12 [Indirubin-3'-monoxime] (2.5 µM) | 0 | 0 | 0 | 0 | 0 | 0 | 0 | 0 | 0 | 0 |
| C[C@@H]1O[C@@H](OC[C@H]2O[C@@H](Oc3cc(O)c4c(c3)O[C@H](c3ccc(O)cc3)CC4=O)[C@H](O)[C@@H](O)[C@@H]2O)[C@H](O)[C@H](O)[C@H]1O [Narirutin] (10 µM) | 0 | 0 | 0 | 0 | 0 | 0 | 0 | 0 | 0 | 0 |
| Cc1cc(Nc2cc(CN3CCOCC3)c3nc(C)c(Cc4ccc(Cl)cc4F)n3n2)n[nH]1 [Gandotinib] (2.5 µM) | 0 | 0 | 0 | 0 | 0 | 0 | 0 | 0 | 0 | 0 |
| O=C(NOCCO)c1ccc2cncn2c1Nc1ccc(I)cc1F (10 µM) | 0 | 0 | 1 | 0 | 0 | 0 | 0 | 0 | 1 | 0 |
| CSc1ccc(CN2CCCC(Nc3ccc4[nH]ncc4c3)C2)cc1 (stereo not given) [Rho-Kinase-IN-1] (10 µM) | 0 | 0 | 0 | 0 | 0 | 0 | 0 | 0 | 0 | 0 |
| COC(=O)N[C@@H](C)CNc1nccc(-c2cn(C(C)C)nc2-c2cc(Cl)cc(NS(C)(=O)=O)c2F)n1 [Encorafenib] (10 µM) | 0 | 0 | 0 | 0 | 0 | 0 | 0 | 0 | 0 | 0 |
| O=[N+]([O-])c1ccc(Sc2cccc[n+]2[O-])c2nonc12 (2.5 µM) | 0 | 0 | 0 | 0 | 0 | 0 | 0 | 0 | 0 | 0 |
| CC(C)N(C)c1nc2cc(C(=O)O)ccc2nc1-c1ccc(F)cc1 (10 µM) | 0 | 0 | 0 | 0 | 0 | 0 | 0 | 0 | 0 | 0 |

As a working copy, some entries already given.

| SMILES | number of time points [1] | number of time points [2] | number of time points [3] | number of time points [4] | number of time points [5] | number of time points [6] | number of time points [7] | number of time points [8] | number of time points [9] | number of time points [10] |
| --- | --- | --- | --- | --- | --- | --- | --- | --- | --- | --- |
| CC1=C(CC(=O)O)c2cc(F)ccc2/C1=C\c1ccc(C(C)C)cc1 (10 µM) | 0 | 0 | 0 | 0 | 0 | 0 | 0 | 0 | 0 | 0 |
| N#C/C(=C(/N)Sc1ccc(N)cc1)c1ccccc1C(F)(F)F (10 µM) | 0 | 0 | 0 | 0 | 0 | 0 | 0 | 0 | 0 | 0 |
